{"source": "paper PMC7822592", "about": "“The half-life of the bone-derived hormone osteocalcin is regulated through O-glycosylation in mice, but not in humans” (eLife, 2020)", "key": {"[1]": {"settings": "human, mean ± SD, 2013, Cioffi et al., 1997, cited from earlier work"}, "[2]": {"assay": "OCN serum levels in wildtype mice at different ages", "type": "in vivo, mouse", "settings": "for Serum osteocalcin concentration: wild type male mice; for OCN serum levels: wildtype male mice, mean ± SD"}}, "note": "Like-named read-outs stand apart in the source and are kept apart here."}
{"substance": "OCN: Osteocalcin, peptide hormone secreted by osteoblasts; endogenous serum protein in mouse or human (YLYQWLGAPVPYPDPLEPRREVCELNPDCDELADHIGFQEAYRRFYGPV; Osteocalcin; UniProt P02818 52-100, looked up)", "values": [{"measurement": "OCN serum levels", "setting": "[1]; 1 year old, n = 43, ref Hannemann et al.", "result": "62.9 ± 8.1 (43) ng/ml"}, {"measurement": "OCN serum levels", "setting": "[1]; 11–13 years old, n = 41, ref Hannemann et al.", "result": "74.1 ± 8.9 (41) ng/ml"}, {"measurement": "OCN serum levels", "setting": "[1]; 25–29 years old, n = 49, ref Hannemann et al.", "result": "21.0 ± 6.3 (49) ng/ml"}, {"measurement": "OCN serum levels", "setting": "[1]; 50–54 years old, n = 127, ref Hannemann et al.", "result": "13.5 ± 6.3 (127) ng/ml"}, {"measurement": "Serum osteocalcin concentration", "setting": "[2]; 2 weeks old, mouse 1", "result": 1639.7, "unit": "ng/mL"}, {"measurement": "Serum osteocalcin concentration", "setting": "[2]; 2 weeks old, mouse 2", "result": 1232.6, "unit": "ng/mL"}, {"measurement": "Serum osteocalcin concentration", "setting": "[2]; 2 weeks old, mouse 3", "result": 1173.8, "unit": "ng/mL"}, {"measurement": "Serum osteocalcin concentration", "setting": "[2]; 2 weeks old, mouse 4", "result": 1429.5, "unit": "ng/mL"}, {"measurement": "Serum osteocalcin concentration", "setting": "[2]; 2 weeks old, mouse 5", "result": 1360.3, "unit": "ng/mL"}, {"measurement": "Serum osteocalcin concentration", "setting": "[2]; 2 weeks old, mouse 6", "result": 1387.8, "unit": "ng/mL"}, {"measurement": "Serum osteocalcin concentration", "setting": "[2]; 2 weeks old, mouse 7", "result": 1275.8, "unit": "ng/mL"}, {"measurement": "Serum osteocalcin concentration", "setting": "[2]; 2 weeks old, mouse 8", "result": 1457.8, "unit": "ng/mL"}, {"measurement": "Serum osteocalcin concentration", "setting": "[2]; 4 weeks old, mouse 1", "result": 399.3, "unit": "ng/mL"}, {"measurement": "Serum osteocalcin concentration", "setting": "[2]; 4 weeks old, mouse 2", "result": 572.3, "unit": "ng/mL"}, {"measurement": "Serum osteocalcin concentration", "setting": "[2]; 4 weeks old, mouse 3", "result": 892.7, "unit": "ng/mL"}, {"measurement": "Serum osteocalcin concentration", "setting": "[2]; 4 weeks old, mouse 4", "result": 504.0, "unit": "ng/mL"}, {"measurement": "Serum osteocalcin concentration", "setting": "[2]; 4 weeks old, mouse 5", "result": 717.3, "unit": "ng/mL"}, {"measurement": "Serum osteocalcin concentration", "setting": "[2]; 13 weeks old, mouse 1", "result": 255.0, "unit": "ng/mL"}, {"measurement": "Serum osteocalcin concentration", "setting": "[2]; 13 weeks old, mouse 2", "result": 245.8, "unit": "ng/mL"}, {"measurement": "Serum osteocalcin concentration", "setting": "[2]; 13 weeks old, mouse 3", "result": 245.8, "unit": "ng/mL"}, {"measurement": "Serum osteocalcin concentration", "setting": "[2]; 13 weeks old, mouse 4", "result": 262.2, "unit": "ng/mL"}, {"measurement": "Serum osteocalcin concentration", "setting": "[2]; 60 weeks old, mouse 1", "result": 60.7, "unit": "ng/mL"}, {"measurement": "Serum osteocalcin concentration", "setting": "[2]; 60 weeks old, mouse 2", "result": 45.9, "unit": "ng/mL"}, {"measurement": "Serum osteocalcin concentration", "setting": "[2]; 60 weeks old, mouse 3", "result": 45.6, "unit": "ng/mL"}, {"measurement": "Serum osteocalcin concentration", "setting": "[2]; 60 weeks old, mouse 4", "result": 47.7, "unit": "ng/mL"}, {"measurement": "OCN serum levels", "setting": "[2]; 2 weeks, n = 8, ELISA", "result": "1369.7 ± 146.7 (8) ng/ml"}, {"measurement": "OCN serum levels", "setting": "[2]; 4 weeks, n = 5, ELISA", "result": "617.2 ± 192.5 (5) ng/ml"}, {"measurement": "OCN serum levels", "setting": "[2]; 13 weeks, n = 4, ELISA", "result": "252.2 ± 8.0 (4) ng/ml"}, {"measurement": "OCN serum levels", "setting": "[2]; 60 weeks, n = 4, ELISA", "result": "50.0 ± 7.2 (4) ng/ml"}]}
